# Results deposited as PubChem BioAssay AID602196 (INSERM, 2012)
# Aim: 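Genes whose knock-down alters cisplatin killing of lung cancer cells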
# System: human A549 lung cancer cells
# Reagents: siRNA pair against human genes
# Timing: 48 h transfection before cisplatin; time from cisplatin to read-out not stated
# Treatment: cisplatin at a dose killing half of control-siRNA cells; exact dose and duration not given
# Detection: 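Shift in cisplatin death relative to control siRNA, from -50 (all cells die) to +50 (no cells die); siRNAs harmful on their own scored 0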
# Direction: two-siRNA summed score (-2 to +2): higher = both siRNAs protect from cisplatin killing; -2 means both sensitise; mean protection from cisplatin (shift in death) and protection from cisplatin (shift in death), siRNA C and protection from cisplatin (shift in death), siRNA D: higher = protection from cisplatin killing
# Rule for the call: 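siRNAs harmful alone (LDH or WST-1) get 0; others get +1 for less and -1 for more cisplatin killing; genes are active when the two siRNAs give the same sign, summing to ±2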
# Calls: active = both siRNAs shift cisplatin killing the same way; inactive = no consistent shift, or siRNA harmful alone
# Shown is an unselected part of about 23,000 deposited reagents. In the full data, 455 (2%) were called active. 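Active includes both protection and sensitisation; some change values fall well beyond the stated -50 to +50 range.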 A number with no mark means an inactive call. The numbers tell different reagents against one gene apart. The record does not give: the amount of reagent.
gene,reagent no.,two-siRNA summed score (-2 to +2),mean protection from cisplatin (shift in death) (%),"protection from cisplatin (shift in death), siRNA C (%)","protection from cisplatin (shift in death), siRNA D (%)"
TPPP (GeneID 11076),1,1,4.1,17.7,-9.6
ITGB5 (GeneID 3693),1,0,7.3,12.7,1.8
PYCR3 (GeneID 65263),1,-1,-4.3,-23.7,15.1
CIDEB (GeneID 27141),1,0,-18.4,-3.9,-32.9
LOC347292,1,1,18.2,16.9,19.5
CYP4F3 (GeneID 4051),1,0,-6,-5.7,-6.3
RASL10B (GeneID 91608),1,-1,-10.6,-12,-9.1
IL18 (GeneID 3606),1,0,3.2,-9.5,15.9
HAS1 (GeneID 3036),1,0,-13,-19,-7
SLC25A10 (GeneID 1468),1,0,1.5,5,-2.1
LOC402582,1,0,1.6,-1.4,4.5
RPUSD3 (GeneID 285367),1,0,-11.8,-4.1,-19.5
LRRC27 (GeneID 80313),1,0,3.9,-0.3,8.1
RNF214 (GeneID 257160),1,1,16.1,10.9,21.3
MBP (GeneID 4155),1,0,21,15.9,26.2
STAG1 (GeneID 10274),1,1,8.2,2.3,14
KIAA1201,1,1,6.3,22.6,-10.1
RELL2 (GeneID 285613),1,0,-6.9,-9.7,-4.2
HLA-DRB5 (GeneID 3127),1,0,-3,-6.7,0.6
ATP11AUN (GeneID 400165),1,1,13.6,18.6,8.7
DLGAP4 (GeneID 22839),1,0,-4.5,-2.2,-6.7
LOC391733,1,0,8.3,16.7,-0.1
LOC390245,1,2 (active),18.6,23.7,13.4
LILRA6 (GeneID 79168),1,0,12.9,11.6,14.2
LYPD3 (GeneID 27076),1,0,-6.1,-9.2,-2.9
GCLC (GeneID 2729),1,-1,-17.8,-11.4,-24.2
LOC340893,1,1,16.2,14.6,17.7
ALKBH5 (GeneID 54890),1,-1,-10,-16.5,-3.5
PRG4 (GeneID 10216),1,0,14.3,14.2,14.4
MTOR (GeneID 2475),1,0,-2.6,11.1,-16.2
ZNF350 (GeneID 59348),1,0,0.8,1.2,0.4
RBM5 (GeneID 10181),1,-1,-5.9,-21.2,9.3
DNAI4 (GeneID 79819),1,0,0.5,8.7,-7.6
COL9A2 (GeneID 1298),1,0,0.5,-2.7,3.6
GRIK1 (GeneID 2897),1,0,14.8,34.1,-4.5
TM7SF2 (GeneID 7108),1,0,-6.6,-31.6,18.3
DENND2A (GeneID 27147),1,1,18.1,24.2,12.1
TMEM120A (GeneID 83862),1,0,-5.2,-10.3,-0.1
LOC441753,1,1,17.6,16.3,19
LOC285346,1,0,0.2,-6,6.5
LAMA3 (GeneID 3909),1,0,-1.5,5.6,-8.6
DUSP12 (GeneID 11266),1,0,-0.9,7.9,-9.7
RGS5 (GeneID 8490),1,-1,-4,-16.5,8.5
PPP1R13L (GeneID 10848),1,0,6.4,7.1,5.7
NOS1 (GeneID 4842),1,0,7.4,5.7,9
PRKACA (GeneID 5566),1,-1,-12.5,-7,-18
HOXD3 (GeneID 3232),1,1,16.9,13.2,20.6
KRT15 (GeneID 3866),1,-1,-6.7,9.9,-23.4
LAMA4 (GeneID 3910),1,-1,-16.9,-7.4,-26.4
VGLL2 (GeneID 245806),1,0,1,-5.7,7.7
LOC440186,1,0,9.3,7.6,11
SLC66A3 (GeneID 130814),1,0,8.7,18.7,-1.3
RMC1 (GeneID 29919),1,0,1.1,1.9,0.4
KARS1 (GeneID 3735),1,0,3.4,-8.7,15.6
SYNGR4 (GeneID 23546),1,0,0,1.2,-1.2
CFAP65 (GeneID 255101),1,0,3.9,17.3,-9.5
CFAP65 (GeneID 255101),2,0,8.6,10.2,7
